The data set deals with Beagle dogs with asymptomatic/preclinical ACVIM stage B2 MMVD. In words: Exploratory laboratory study in dogs with asymptomatic/preclinical myxomatous mitral valve disease (MMVD). Format: in vivo, dog. The conditions noted are these: 2 subjects (Azul and Birdie); Day 59. An excerpt: Echocardiographic findings in dogs with MMVD stage B2 include degenerative valvular changes, increased left atrial dimension (LA/AO-ratio≥1.6), and increased left ventricular end-diastolic dimensions normalized to body weight (LVIDDN≥1.7) (Keene et al., 2019). For evaluation of survival time a severity score (MINE score) based on the echocardiographic variables above, the cardiac contractility (fractional shortening, FS %), and transmitral peak E-wave velocity was initiated (Vezzosi T et al., J Vet Intern Med. 2021, 35(3):1238-1244). The MINE score is associate with the survival time and provides therefore prognostic information. […]
Baseline assessments included body weight measurements, veterinary examinations, echocardiographs, urinalysis, blood collections for hematology, biochemistry, BHB, NT-proBNP, cTnI, and erythropoietin analysis as well as radiographs to assess heart size, pulmonary edema, and congestion. […] General health observations are conducted twice daily, and body weights measured approximately every 3 weeks.
Additionally, the “The Mitral Insufficiency Echocardiographic” score, a severity classification of myxomatous mitral valve disease (MMVD) in dogs (MINE score) was calculated (Vezzosi et al., 2021). […]

SMILES strings stand for the structures. The amount applied is not stated for every result.

Among the data in patent US20240398845A1, “USE OF SGLT-2 INHIBITORS FOR THE PREVENTION AND/OR TREATMENT OF CARDIAC DISEASES IN NON-HUMAN MAMMALS EXCLUDING FELINES, IN PARTICULAR CANINES” (BOEHRINGER INGELHEIM VETMEDICA GMBH, priority 2021, published 2024) are BHB reduction values, retold here.

As for `N#Cc1ccc([C@@H]2O[C@H](CO)[C@@H](O)[C@H](O)[C@H]2O)cc1Cc1ccc(C2CC2)cc1` [velagliflozin, Velagliflozin], the BHB reduction was 10 ×.
